Reference: PubChem BioAssay AID540276 (National Center for Advancing Translational Sciences (NCATS), 2011)
About 5,400 (1.8%) of roughly 300,000 compounds were called active. The inconclusive results got no clear call from the source; some entries with a clear call stand among them for comparison. Calls come from the whole dose curve; tested in HEK293 cells. Potencies beside an inconclusive call are fits to weak or partial responses and may not hold up.

assay: qHTS for inhibitors of binding or entry into cells for Marburg Virus; details: Marburg virus pseudotyped entry inhibition, cell reporter; activity change, negative = inhibition: at 37.8 µM (top of the series) unless noted
% is set by controls: 0 for no effect and ±100 for the full control effect; potency is the fitted concentration of half-maximal effect.

For `O=C(NNC(=O)c1cc2cc(OC(F)(F)F)ccc2[nH]1)c1cccc(C(F)(F)F)c1`, which Potency is on record?
The Potency was inconclusive: 17.8 µM [inhibitor, partial curve, poor fit].

Which Potency does the source give for `CCn1c(SCC(=O)Nc2ccc3c(c2)OCCO3)nnc1-c1cccs1` here?
Its Potency is inconclusive: 0.231 µM [inhibitor, partial curve, poor fit].

Which Potency does the source give for `CCc1ccccc1NC(=O)COc1ccc(N2CC(C(N)=O)CC2=O)cc1` (configuration not stated) here?
The Potency was inconclusive: 2.82 µM [activator, full curve].

For `Fc1ccc(NC(=S)Nc2ccccc2Cl)cc1`, which Potency is on record?
Its Potency is “inactive”.

With `Cc1ccc(C(=O)N(Nc2nc3ccccc3s2)C(=O)c2ccc(C)cc2)cc1` as the compound, how does the Potency read?
Its Potency is inconclusive: 29.1 µM [activator, single point].

For `COc1cc(OC)cc(C(=O)N[C@H](C(=O)Nc2ccc(S(=O)(=O)N(C)C)cc2)C(C)C)c1`, which Potency is on record?
The Potency was inconclusive: 3.98 µM [inhibitor, partial curve, poor fit].

With `COc1cc2c(c(OC)c1OC)-c1ccc(OC)c(=O)cc1C(NC(=O)c1ccccc1)CC2` (configuration not stated) as the compound, how does the activity change, negative = inhibition read?
Its activity change, negative = inhibition is inconclusive: 0.959% [activator].

With `CCCN1C(=O)C(NS(=O)(=O)c2ccc(N)cc2)(C(F)(F)F)C(C(=O)OC)=C1C` (configuration not stated) as the compound, how does the Potency read?
The Potency was inconclusive: 0.316 µM [inhibitor, partial curve, poor fit].

With `CC(=O)OC[C@H]1O[C@@H](n2ncc(=O)[nH]c2=O)[C@H](OC(C)=O)[C@@H]1OC(C)=O` as the compound, how does the Potency read?
Its Potency is inconclusive: 1.3 µM [inhibitor, full curve, poor fit].

With `O=c1cc(CSc2nnc(COc3ccccc3)n2-c2ccccc2)c2ccccc2[nH]1` as the compound, how does the Potency read?
Its Potency is inconclusive: 35.5 µM [inhibitor, single point].

With `O=C(c1ccc(=O)oc1)N1CCC(C(O)(c2ccccc2)c2ccccc2)CC1` as the compound, how does the Potency read?
Its Potency is inconclusive: 25.1 µM [inhibitor, single point].

For `CCC1(CC)C(=O)NC(=NCCc2c[nH]c3ccccc23)NC1=O`, which Potency is on record?
The Potency was inconclusive: 29.1 µM [activator, single point].

Which Potency does the source give for `COc1ccc(-c2cc(C)no2)cc1S(=O)(=O)N1CCN(c2ccccn2)CC1` here?
Its Potency is inconclusive: 2.82 µM [inhibitor, partial curve, poor fit].

For `CNC(=O)COC(=O)/C=C/c1cn(-c2ccccc2)nc1-c1ccc2c(c1)OCCO2`, which Potency is on record?
Its Potency is inconclusive: 0.251 µM [activator, full curve, poor fit].

With `COc1cccc(-c2noc(C(C)n3nc(C)c([N+](=O)[O-])c3C)n2)c1` (configuration not stated) as the compound, how does the Potency read?
The Potency was inconclusive: 35.5 µM [inhibitor, partial curve, poor fit].

With `COc1ccc(COCCN2CCN(S(=O)(=O)c3ccc(C)cc3)CCC2=O)cc1` as the compound, how does the Potency read?
Its Potency is inconclusive: 0.0004 µM [activator].

With `C=CCNC(=O)C1CC(=O)N(c2ccc(OCC(=O)Nc3ccccc3)cc2)C1` (configuration not stated) as the compound, how does the Potency read?
Its Potency is “inactive”.

With `C=CCn1c(SCC(C)=O)nc2scc(-c3ccc(C)o3)c2c1=O` as the compound, how does the Potency read?
The Potency was “inactive”.

With `CCOC(=O)Cc1csc(NC(=O)COc2ccc(N(C)S(=O)(=O)c3ccc(C)cc3)cc2)n1` as the compound, how does the Potency read?
Its Potency is inconclusive: 18.3 µM [inhibitor, partial curve, poor fit].

With `O=C(Nc1ccc2ccccc2n1)C1CCCCC1` as the compound, how does the Potency read?
The Potency was inconclusive: 10 µM [inhibitor, partial curve, poor fit].

Which Potency does the source give for `CCOc1ccc(OCCSc2nc3ccccc3c(=O)[nH]2)cc1` here?
Its Potency is “inactive”.

Which Potency does the source give for `Nc1ccc2cc(Br)ccc2c1` here?
The Potency was “inactive”.

Which Potency does the source give for `N#Cc1ccsc1NC(=O)CN1CCN(c2ccccc2O)CC1` here?
Its Potency is inconclusive: 25.1 µM [inhibitor, single point].

Which Potency does the source give for `CCOC(=O)c1[nH]c2ccccc2c1NC(=S)Nc1cc(C)ccc1C` here?
Its Potency is inconclusive: 5.8 µM [activator, full curve, poor fit].

With `O=C(C/C=N/OCc1ccc(Cl)cc1)c1cnc(-c2ccccc2)s1` as the compound, how does the Potency read?
Its Potency is “inactive”.

Which Potency does the source give for `O=C(O)CSCC(=O)Nc1ccc(C2CCCCC2)cc1` here?
Its Potency is inconclusive: 1.41 µM [inhibitor, full curve, poor fit].

For `COc1ccc(NC(=O)Cn2ncc3c(C)n(Cc4cccc(Cl)c4)c(C)c3c2=O)cc1`, which Potency is on record?
The Potency was inconclusive: 0.355 µM [inhibitor, partial curve, poor fit].

With `CCN1CCN(c2ncc(C(=O)Nc3cc(Cl)ccc3OC)c3ccccc23)CC1` as the compound, how does the Potency read?
Its Potency is active: 2 µM.

For `COC(=O)c1ccc(NC2c3ncccc3C(=O)N2Cc2cccs2)cc1` (configuration not stated), which Potency is on record?
Its Potency is “inactive”.

Which Potency does the source give for `Cc1cc(C)nc(N/N=C/c2cc(Br)ccc2O)n1` here?
Its Potency is inconclusive: 31.6 µM [inhibitor, single point].

For `CC(C)=NNc1nc2c(c(=O)[nH]c(=O)n2C)n1CCCc1ccccc1`, which Potency is on record?
The Potency was “inactive”.

For `COc1cc(NC(=S)Nc2cccnc2)cc(OC)c1OC`, which Potency is on record?
Its Potency is inconclusive: 0.13 µM [inhibitor, partial curve, poor fit].

Which Potency does the source give for `O=C(c1ccc2c(c1)OCCCO2)c1cccs1` here?
The Potency was “inactive”.

Which Potency does the source give for `CN=C(c1ccccc1)c1c(C)cccc1C` here?
The Potency was inconclusive: 25.1 µM [activator, single point].

With `Cc1ccc(C(=O)N/C(=C/c2ccco2)C(=O)Nc2cccc(C)c2)cc1` as the compound, how does the Potency read?
Its Potency is inconclusive: 8.2 µM [inhibitor, partial curve, poor fit].

Which Potency does the source give for `CCOc1ccccc1N1CCN(CC(=O)Nc2ccccc2C(=O)NC2CC2)CC1` here?
Its Potency is “inactive”.

Which Potency does the source give for `CCNC(=S)N(CCc1cccc(C)c1)Cc1cc2cc(OC)c(OC)cc2[nH]c1=O` here?
The Potency was inconclusive: 11.2 µM [inhibitor, single point].

Which Potency does the source give for `COc1ccccc1Oc1ccc2c(c1)C(=O)N(c1cccc3ncccc13)C2=O` here?
The Potency was inconclusive: 25.1 µM [inhibitor, single point].

Which Potency does the source give for `CCC1(CC)NC(=O)N(CC(=O)Nc2sc3c(c2C(N)=O)CCC3)C1=O` here?
Its Potency is inconclusive: 1.26 µM [activator, single point].

Which Potency does the source give for `S=C(NCCc1cccc(Cl)c1)NC1CCCCC1` here?
Its Potency is inconclusive: 2.51 µM [activator, partial curve, poor fit].

For `COc1cccc2c(=O)ccoc12`, which Potency is on record?
Its Potency is “inactive”.

For `CCCOc1ccc(Cc2c(COCC)[nH]c(=S)[nH]c2=O)cc1`, which Potency is on record?
Its Potency is inconclusive: 6.31 µM [activator, single point].
